The list shows a part of the results. Shown are side measurements of this screen, not its main read-out; they come without a call. Compounds called inactive in the main read-out are mostly missing here. Potencies come from curve fits of mixed quality, noted in brackets.

A short description of the test: qHTS Assay for Lipid Storage Modulators in Drosophila S3 Cells.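 For cell number change: cells counted by Cell Tracker Red CMTPX staining in the red channel.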 The settings on record: BODIPY lipid droplet fluorescence, 18-24 h; for cell number change: measured here: cell count max response, cells fed with added oleic acid. The essentials: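 Laser-scanning cytometry quantifies lipid droplet accumulation (500–530 nm total intensity; droplet/cell object ratio) in oleic acid-fed (400 uM added) Drosophila S3 cells treated with a concentration series. 20 uM Triacsin C defined 100% inhibition.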
(In general: In qHTS, concentration-response curves come from the screen itself.)

Setting [1] is: measured here: lipid fluorescence (Fed channel) AC50, cells fed with added oleic acid.
Setting [2] is: measured here: cell number channel AC50, cells fed with added oleic acid.

In the case of `O=C(N/C(=C\c1ccc2c(c1)OCO2)C(=O)N1CCOCC1)c1cccs1`, the AC50 under setting [1] was 0.58 µM [rising, single point].
Turning to `COc1ccc(NC(=O)CSc2nccn2Cc2ccco2)c(OC)c1`, the cell number change was -17.9%.
As to `COc1ccc(Br)cc1C(=O)N/N=C/c1cccnc1`, the cell number change was 18.7%. In addition, under setting [1], the AC50 is 29.1 µM [rising, single point].
Regarding `O=C(NCCC(=O)N(CCc1ccccc1)Cc1ccccc1)c1ccccc1Cl`, the cell number change turned out to be 120%. Under setting [2], the AC50 is 11.6 µM [rising, partial curve].
For the molecule `Cc1nc(N2CCOCC2)c2c(C)c(C(=O)Nc3ccc(C(F)(F)F)cc3)sc2n1`, the cell number change is -44.9%. Moreover, under setting [2], the AC50 was 14.6 µM [falling, partial curve]. The AC50 under setting [1] is 25.9 µM [falling, single point].
Regarding `NC(=O)NC(=O)CN1C(=O)NC2(CCOc3ccccc32)C1=O` (stereo not drawn), the cell number change was determined as 9.91%. For the same molecule, the AC50 under setting [1] was 3.66 µM [rising, partial curve].
Take `O=C(Nc1cc(Br)ccc1O)c1cnn2c(C(F)F)cc(C3CC3)nc12`: the AC50 under setting [1] is 6.51 µM [rising, partial curve].
Consider `COc1cc(CNCCCN2CCOCC2)ccc1OCC(=O)Nc1cccc(C(F)(F)F)c1`, for which the cell number change was -9.75%.
In the case of `Cc1ccc2cc(CN(Cc3ccc4c(c3)OCO4)Cc3nnnn3Cc3ccco3)c(=O)[nH]c2c1C`, the AC50 by setting is: under setting [2], 0.651 µM [rising, single point]; under setting [1], 2.06 µM [rising, partial curve].
Regarding `Cc1c(C(=O)O)sc(S(=O)(=O)N2CCN(C(=O)Cc3ccccc3)CC2)c1C(=O)O`, the cell number change is -3.9%. In addition, the AC50 under setting [1] is 29.1 µM [rising, single point].
As for `Cc1ccc(-n2c(SCC(=O)NCC3CCCO3)nc3n[nH]c(C)c3c2=N)cc1Cl` (stereo not drawn), the cell number change was found to be 166%. In addition, under setting [2], the AC50 is 1.46 µM [rising, full curve]. For the same molecule, under setting [1], the AC50 was 1.46 µM [rising, full curve].
Take `COC(=O)c1c(O)cc(C(C)(C)C)n(-c2ccc(F)cc2)c1=O`: the cell number change is -40.7%. In addition, the AC50 under setting [2] was 29.1 µM [falling, single point]. Further, the AC50 under setting [1] is 29.1 µM [falling, single point].
In the case of `Cc1ccc(N(C(=O)Cn2nnc(-c3ccc(C)o3)n2)C(C(=O)NC2CCCC2)c2ccco2)cc1` (stereo not drawn), the cell number change is -65.7%. Besides, the AC50 under setting [2] is 18.4 µM [falling, partial curve]. Besides, the AC50 under setting [1] was 23.1 µM [falling, single point].
For the molecule `Cc1ccc(CN=C2Nc3ccccc3CS2)cc1`, the cell number change is -20.7%. Also, the concentration at half-maximal activity (AC50) under setting [1] was 29.1 µM [falling, single point].
On to `C#CCOCCOCCOCCNc1nc(N2CCN(C(=O)CCCCCCCCCCNC(=O)[C@@H](CCSC)n3cc(CCO)nn3)CC2)nc(N2CCN(C(=O)CCCCCCCCCCNC(=O)[C@@H]([C@H](C)O)n3cc(C)nn3)CC2)n1`, for which the cell number change amounted to 5.94%.
With `COC(=O)N/N=C/c1cc(C)n(-c2ccc(F)cc2)c1C`, the cell number change worked out at 12.3%. Also, the AC50 under setting [1] is 6.51 µM [rising, single point].
Consider `Cc1cc(Br)ccc1NC(=S)N1CCOCC1`, for which the cell number change stood at 19.2%. Also, under setting [1], the AC50 was 11.6 µM [rising, single point].
Take `CCc1cc2ccccc2nc1SCC(=O)Nc1cc(OC)c(OC)cc1C(=O)O`: the cell number change is 7.32%. For the same molecule, the AC50 under setting [1] was 2.91 µM [falling, partial curve].
On to `CSc1ccc(/C=N/n2c(C)cc(C)cc2=O)cc1`, for which the cell number change came out at 9.49%. For the same molecule, the AC50 under setting [1] was 0.146 µM [falling, full curve, poor fit].
Take `Cc1cc(C=O)c(O)cc1O`: the cell number change came to 36.2%. In addition, under setting [1], the half-maximal activity concentration (AC50) is 3.26 µM [rising, partial curve].
Regarding `CCc1cccc2c(C(=O)C(NC(C)CC)c3ccccc3)c[nH]c12` (stereo not drawn), the cell number change was determined as 14.9%. Besides, under setting [1], the AC50 is 1.46 µM [rising, partial curve].
As for `CCOc1ccc(CCNS(=O)(=O)c2ccc3c(c2)N(C(C)=O)CCO3)cc1OCC`, the cell number change stood at 9.85%.
The same measure, in the same setting: next, `O=C(COC(=O)c1ccc(F)c(S(=O)(=O)N2CCCCC2)c1)NCc1ccc(F)cc1`: -7.58%; `Cc1cc(C(=O)NNc2ccc(C(C)C)cc2)n(C(C)(C)C)n1`: -0.543%.
As for `CCN(CC(=O)Nc1ccccc1C(F)(F)F)C(=O)c1ccc(N2C(=O)CCC2=O)cc1`, the cell number change came to 34.6%. The AC50 under setting [1] is 29.1 µM [falling, single point].
For `Cc1cc(=O)[nH]c2c1c(=O)[nH]n2C1CC(C)N(C)CC1C` (stereo not drawn), the cell number change was -11%. Under setting [2], the concentration at half-maximal activity (AC50) is 0.731 µM [falling, single point]. The half-maximal activity concentration (AC50) under setting [1] is 32.6 µM [falling, single point].
With `CCc1cc(C(=O)N2CCN(S(=O)(=O)c3ccccc3F)CC2)sc1C`, the cell number change is -14.3%.
`CCOc1ccc(Nc2nc3c(C)cccc3cc2C#N)cc1`: the cell number change was found to be 1.82%.
For `Cc1ccc(-c2nnc(SCC(=O)N3CCN(c4ccccc4)CC3)o2)cc1`, the cell number change is -8.99%. For the same molecule, the AC50 under setting [1] is 29.1 µM [rising, single point].
Turning to `Cc1ccc(S(=O)(=O)NCC(=O)OCc2nnc(-c3ccccc3)o2)cc1C`, the cell number change was 51.1%. Moreover, the AC50 under setting [2] is 8.2 µM [rising, partial curve, poor fit].
With `CCC(=O)Nc1ccc(S(=O)(=O)Nc2ncccn2)cc1`, the cell number change was found to be 21.8%. Moreover, the AC50 under setting [1] was 2.31 µM [falling, full curve, poor fit].
For `O=C(NCc1nc2ccccc2[nH]1)C1=C[C@@H](C2CC2)C[C@@H](OCc2ccc(CO)cc2)O1`, the cell number change was -3.77%. In addition, the AC50 under setting [1] was 6.51 µM [rising, single point].
Consider `CCNC(=O)COc1cc(C)c(Cl)c(C)c1`, for which the cell number change turned out to be 8.47%. For the same molecule, the AC50 under setting [1] is 6.51 µM [rising, partial curve].
As to `CCCN1C(=O)/C(=C/c2nc3ccccc3c(=O)[nH]2)c2cc(C)ccc21`, the cell number change was 22%.
Consider `Cc1nc2ccccc2c2c1C(=O)N(Cc1cccnc1)C2=O`, for which the AC50 under setting [1] was 1.03 µM [rising, full curve].
Take `O=C(CNS(=O)(=O)c1cccs1)NCc1ccc(F)cc1`: the cell number change was -22.3%. The AC50 under setting [2] is 3.26 µM [rising, single point]. Moreover, the AC50 under setting [1] was 3.26 µM [rising, single point].
On to `Nn1c(SCc2cc([N+](=O)[O-])cc3c2OCOC3)nnc1-c1cccnc1`, for which the cell number change was determined as 2.22%. Further, under setting [2], the AC50 was 1.46 µM [rising, partial curve, poor fit].
`CN1CCC(OC(=O)c2cccc(Br)c2)CC1`: the cell number change is -64.5%. Also, the AC50 under setting [2] is 2.06 µM [falling, full curve]. The concentration at half-maximal activity (AC50) under setting [1] was 18.4 µM [falling, partial curve].
Consider `O=C(CSc1nnc(CNC(=O)c2c(F)cccc2Cl)o1)NCc1ccc(F)cc1`, for which the cell number change was -18.4%. For the same molecule, under setting [1], the concentration at half-maximal activity (AC50) is 29.1 µM [falling, single point].
Turning to `Cc1cc(N/N=C/c2ccc(O)c(C)c2O)nc(-c2ccccc2O)n1`, the cell number change is -65%. Further, the AC50 under setting [2] was 29.1 µM [falling, single point]. Also, the AC50 under setting [1] is 0.731 µM [falling, single point].
As to `C#CCOCCOCCOCCNc1nc(N2CCN(C(=O)C(Cc3cc4ccccc4[nH]3)n3cc(C(N)Cc4ccc(O)cc4)nn3)CC2)nc(N2CCN(C(=O)C(CCC(=O)O)n3cc(C(N)C(C)CC)nn3)CC2)n1` (stereo not drawn), the cell number change stood at 5.68%. Besides, under setting [1], the AC50 was 0.291 µM [rising, full curve, poor fit].
In the case of `CCOC(=O)c1c(-c2ccc(OC)cc2)oc2ccc(OCC(N)=O)cc12`, the cell number change is -33.8%. The AC50 under setting [2] was 20.6 µM [falling, single point].
For `CCN1CCCC1CNC(=O)COc1cc(=O)n(C)c2ccccc12` (stereo not drawn), the cell number change is 24.5%. Further, the AC50 under setting [1] is 23.1 µM [rising, partial curve, poor fit].
As to `CCCC(=O)Nc1nnc(SCC(=O)NCc2ccc3c(c2)OCO3)s1`, the cell number change is -6.01%.
For `Cc1ccc(Cl)cc1N1CCN(S(=O)(=O)c2ccc3c(c2)OCCO3)CC1`, the cell number change came to 31.8%.
For `COc1ccc(N(CC(=O)N2CCc3ccccc3C2)S(C)(=O)=O)cc1`, the cell number change stood at 83.1%. In addition, the AC50 under setting [2] was 10.3 µM [rising, partial curve]. The AC50 under setting [1] was 13 µM [rising, partial curve].
Take `O=C(c1ccccc1)c1nc2ccccc2n(CCCn2c(=O)c(C(=O)c3ccccc3)nc3ccccc32)c1=O`: the cell number change is -10.8%.
Turning to `Cc1cc(=O)[nH]c2ccc(Cl)cc12`, the cell number change came to 37.9%. Besides, under setting [2], the AC50 is 5.8 µM [rising, single point].
For `O=C(CCl)N(c1ccccc1)C1CCCCC1`, the cell number change is -57.9%. Also, under setting [2], the AC50 is 29.1 µM [falling, single point]. In addition, the AC50 under setting [1] is 16.4 µM [falling, single point].
With `COc1cc(C(=O)N/N=C/c2ccc(OC(=O)c3cccc(C)c3)cc2)ccc1O`, the cell number change is -44.6%. Under setting [2], the AC50 is 18.4 µM [falling, partial curve, poor fit]. Moreover, the AC50 under setting [1] is 29.1 µM [rising, partial curve, poor fit].
For `Cc1ccc(-n2nnnc2SCC(=O)Nc2c(C)n(C)n(-c3ccccc3)c2=O)cc1`, the cell number change is 37%. In addition, under setting [2], the AC50 was 25.9 µM [rising, single point]. Under setting [1], the AC50 is 0.116 µM [falling, single point].
For the molecule `COc1ccc(OC)c(NC(=O)C2CC(C)=C(C)CC2C(=O)O)c1` (stereo not drawn), the cell number change was -17.6%. Moreover, under setting [1], the AC50 was 8.2 µM [rising, partial curve, poor fit].
Consider `O=Cc1c(NCCCN2CCCC2=O)c2ccccc2[nH]c1=O`, for which the cell number change was 11.8%. Moreover, the AC50 under setting [1] was 20.6 µM [rising, single point].
Consider `Cc1ccc(CNC(=O)c2cc(-c3ccccc3C)n(CC3CC(c4cccc([N+](=O)[O-])c4)=NO3)n2)cc1` (stereo not drawn), for which the cell number change is -13.2%. Further, the AC50 under setting [1] was 0.82 µM [falling, full curve, poor fit].
Consider `CCN(CC)CCCNC(=O)CN1N=C(c2ccc(OC)cc2)CCC1=O`, for which the cell number change was determined as 4.6%. For the same molecule, under setting [1], the AC50 was 16.4 µM [rising, single point].
Turning to `O=C(C1CCCN(c2ncnc3c2nc2n3CCCCC2)C1)N1CCN(c2ccccc2)CC1` (stereo not drawn), the cell number change is -58%. The AC50 under setting [2] was 29.1 µM [falling, single point]. Further, under setting [1], the AC50 was 18.4 µM [falling, single point].
As for `CN(CC(=O)Nc1ccc(Cl)c(Cl)c1)C(=O)C1CCCC1`, the cell number change is -13.3%. The AC50 under setting [2] is 0.164 µM [falling, full curve, poor fit]. In addition, the AC50 under setting [1] is 0.116 µM [falling, full curve, poor fit].

Broadly, the AC50 is the concentration giving half of the maximal activity seen. High values mean activity only at high concentration, low ones activity at low concentration.

The values above are taken from PubChem BioAssay AID2685 (National Center for Advancing Translational Sciences (NCATS), 2010).
